Earlier results on 2 substances are cited in US4760029A, “Assay for D-1 antagonistic activity of neuroleptic drugs” (Schering Corporation, priority 1984, dated 1988).

For this series, the system named is D-1 receptor. The settings on record: Life Sciences 23, 551 (1978).

As to “^3 H-cis-(Z)-flupentixol [^3 H-flupentixol]”, the “non-specific binding as share of total binding” value is reported as approximately 74%.

With “^3 H-cis-(Z)-piflutixol [^3 H-piflutixol]”, the “non-specific binding as share of total binding” value is listed as “about 66%”.
